PubChem BioAssay AID1259405 | NCATS, 2018
Purpose: 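Silenced genes that increase secreted GFP made by CHO cells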 (primary screen). Cells: Chinese hamster CHO-K1 ovary cells with stable secreted eGFP expression. Knock-down reagent: single siRNA against mouse genes, 0.8 pmol siRNA per well (2 µl of 400 nM stock). Duration: 3 days. Read-out: 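Per-well intracellular GFP measured by laser scanning cytometry, plus viability from ATP luminescence, each relative to plate median of non-targeting control wells, in %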. Scale: GFP, % of control: higher = more GFP per well, higher productivity; viability (ATP), % of control: higher = more viable cells (more ATP). Active means: 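Called active when intracellular GFP, relative to negative control, is at or above 120%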.
In all, the deposit lists about 50,000 reagents; below is a random part of them. In the full data, about 4,000 (8%) were called active. 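Mouse siRNA library applied to hamster cells; one well for each siRNA.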 The numbers tell different reagents against one gene apart. No sequences are given here.

Smc4 #1 → GFP, % of control: 108; viability (ATP), % of control: 104; Call: inactive
Smc4 #2 → GFP, % of control: 57.9; viability (ATP), % of control: 40.3; Call: inactive
Smc4 #3 → GFP, % of control: 52.3; viability (ATP), % of control: 67.8; Call: inactive
Nt5c3b #1 → GFP, % of control: 90.5; viability (ATP), % of control: 119; Call: inactive
Nt5c3b #2 → GFP, % of control: 99.8; viability (ATP), % of control: 63.7; Call: inactive
Nt5c3b #3 → GFP, % of control: 70.2; viability (ATP), % of control: 97.1; Call: inactive
Gprasp1 #1 → GFP, % of control: 70; viability (ATP), % of control: 58.2; Call: inactive
Gprasp1 #2 → GFP, % of control: 103; viability (ATP), % of control: 158; Call: inactive
Gprasp1 #3 → GFP, % of control: 76.5; viability (ATP), % of control: 82.2; Call: inactive
Cct6b #1 → GFP, % of control: 31.7; viability (ATP), % of control: 37.1; Call: inactive
Cct6b #2 → GFP, % of control: 79.4; viability (ATP), % of control: 87.4; Call: inactive
Cct6b #3 → GFP, % of control: 88.4; viability (ATP), % of control: 147; Call: inactive

Reprinted from the listing, 2 entries:
Smc4 #3 → GFP, % of control: 52.3; viability (ATP), % of control: 67.8; Call: inactive
Nt5c3b #1 → GFP, % of control: 90.5; viability (ATP), % of control: 119; Call: inactive

The list goes on:
Wdr26 #1 → GFP, % of control: 67.8; viability (ATP), % of control: 67.2; Call: inactive
Wdr26 #2 → GFP, % of control: 99.7; viability (ATP), % of control: 48.7; Call: inactive
Wdr26 #3 → GFP, % of control: 55.9; viability (ATP), % of control: 81; Call: inactive
Rps6ka6 #1 → GFP, % of control: 108; viability (ATP), % of control: 121; Call: inactive
Rps6ka6 #2 → GFP, % of control: 78.3; viability (ATP), % of control: 52.4; Call: inactive
Rps6ka6 #3 → GFP, % of control: 80.3; viability (ATP), % of control: 85.7; Call: inactive
